Measurements: patent US11634451B2, “Method for the site-specific enzymatic labelling of nucleic acids in vitro by incorporation of unnatural nucleotides” (The Scripps Research Institute, priority 2013, dated 2023)

Test: Post-amplification biotin labeling of DNA analyzed via streptavidin gel shift
[1] = FIG. 6A, unnatural base pair centrally located in 134-mer, NHS-PEG4-biotin, streptavidin gel shift
[2] = FIG. 6B, unnatural base pair at the eleventh position (primer 3)
[3] = FIG. 6B, unnatural base pair at the first position (primer 1)
[4] = FIG. 6B, unnatural base pair at the ninth position (primer 2)

| SMILES | labeling efficiency [1] [%] | labeling efficiency [2] [%] | labeling efficiency [3] [%] | labeling efficiency [4] [%] | coupling efficiency with NHS-ester biotin (DNA prepared by PCR amplification) [%] | conversion of the phosphorothioate bond to the functionalized derivative (iodoacetyl-PEG2-biotin, streptavidin gel shift assay) |
| --- | --- | --- | --- | --- | --- | --- |
| COc1cc2ccccc2cc1[C@H]1C[C@H](O)[C@@H](COP(=O)(O)OP(=O)(O)OP(=O)(O)O)O1.Cc1ccc2c(=S)n([C@H]3C[C@H](O)[C@@H](COP(=O)(O)OP(=O)(O)OP(=O)(O)O)O3)cc(C#CCNC(=O)C(Cl)Cl)c2c1 [d5SICSPA-dNaM, reference compound] | 72 | 56 | 6 | 84 |  |  |
| Cc1ccc2c(=S)n([C@H]3C[C@H](O)[C@@H](CO)O3)cc(C#CCN)c2c1 [d5SICS^A] |  |  |  |  | 70 |  |
| Cc1ccc2c(=S)n([C@H]3C[C@H](O)[C@@H](COP(O)(=S)OP(=O)(O)OP(=O)(O)O)O3)ccc2c1 (stereo partly shown) [d(5SICS-αS)TP] |  |  |  |  |  | 60-70% |
| COc1cc2ccccc2cc1C1CC(O)C(CO)O1.O=C(NCC#Cc1cn(C2CC(O)C(CO)O2)c(=S)c2sccc12)C(Cl)Cl (stereo not shown) [dTPT3PA-dNaM] | 80 | 81 | 72 | 94 |  |  |
